These are yes or no findings as the source states them, for the method shown. Where a sequence is shown, tags or fusion partners need not be part of it.
Target: T1, His-tagged Aeromonas caviae flagellin-specific chaperone FlaJ (His-FlaJ) (Aeromonas caviae) (UniProt Q9R9R5)
T1 sequence: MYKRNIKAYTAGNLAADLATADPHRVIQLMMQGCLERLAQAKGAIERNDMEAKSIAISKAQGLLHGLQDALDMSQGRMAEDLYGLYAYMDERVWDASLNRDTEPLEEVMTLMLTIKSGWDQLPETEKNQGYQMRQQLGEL
Test: far-Western, overlay or dot blot; purified proteins resolved by SDS-PAGE and blotted; membrane incubated in PBS with purified GST or GST-FlaJ at 0.01 mg ml^−1; detected with αGST-HRP conjugate and ECL; both purified

B1: GST-tagged Aeromonas caviae flagellin-specific chaperone FlaJ (GST-FlaJ) (protein, UniProt Q9R9R5 1-140)
chain: T1 sequence
binding: no binding (tested: 0.01 mg ml^−1)

From PMC4065374
